± gives the standard deviation. This is a selection; strong and weak results do not stand in their true shares. Many entries were measured with a wide error.

One test concerns MILI (PIWIL2) piRISC loaded with L1MC piRNA (26 nt). The test is described as follows: pre-steady-state target cleavage rate (min^-1); MIWI and MILI are mouse PIWI proteins and EfPiwi is from a freshwater sponge; tags in brackets are library labels; higher = faster piRNA-guided slicing of the target. As to conditions: guide: L1MC piRNA 5'p-UAACUAAAUACUAUGCAAGCUGUAGG; auxiliary factor: 500 nM mouse GTSF1. A digest of the protocol: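 Using HEPES–potassium acetate buffer at 33 °C, 1 nM active affinity-purified piRISC with a single synthetic guide was mixed with 0.1 nM transcribed, DNA-blocked target RNA library for 0–8 or 0–960 min, with or without 500 nM GTSF1 partner protein. Uncleaved targets were sequenced and normalised to depth and to weakly complementary targets, and three trials were pooled with k3 capped at 0.0001 min^-1. A burst-and-steady-state fit gave the pre-steady-state cleavage rate.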
Regarding UCCUGGUGACAGCUUGCAUAGUAUUUAGUUA, the “pre-steady-state target cleavage rate” value amounted to 0.507 ± 0.044.

For UCCUGGAUGUCGAAGGAUAGUAUUUAGAUA, the “pre-steady-state target cleavage rate” value stood at 0.000112 ± 0.035.

Take UCCUGCUGCAGCUUGCAUAGUAUUUAGUUA: the “pre-steady-state target cleavage rate” value is 0.331 ± 0.024.

As for UCCUGGUACAGCAUGCAUAGUAUUAAGUUA, the “pre-steady-state target cleavage rate” value came out at 0.292 ± 0.06.

For UCCUGGAUGUCGAACGUUAGUUUUUACUUA, the “pre-steady-state target cleavage rate” value amounted to 0.000148 ± 0.039.

Staying with this test, now noted: guide: L1MC piRNA 5'p-UAACUAAAUACUAUGCAAGCUGUAGG; auxiliary factor: none (no GTSF1).
Turning to UCCUGCUACAGCUUGCAUAGUAAAAUCAAA, the “pre-steady-state target cleavage rate” value turned out to be 0.000953 ± 0.0064.

With UCCUGGAUGAGCUUGCAUAGUUUUUAGUAA, the “pre-steady-state target cleavage rate” value worked out at 0.00256 ± 0.003.

On to UCCUGGAUCAGCUUGCAUAGUAUUUAGUCUA, for which the “pre-steady-state target cleavage rate” value was 0.00167 ± 0.0047.

For UCCUGGAUGAGCUUGCAUUCAAUUUACAAA, the “pre-steady-state target cleavage rate” value came out at 0.000193 ± 0.034.

Consider UCCUGGAUGUCGAACGUUAGUAUCUUAGUUA, for which the “pre-steady-state target cleavage rate” value was found to be 0.000206 ± 0.022.

Turning to UCCUGGAUGUGCUUGCAUAGUAUUAAGAUA, the “pre-steady-state target cleavage rate” value came out at 0.000761 ± 0.0074.

In the case of UCCUGGAUGUCGAACGUAAGUCAUUUAGUUA, the “pre-steady-state target cleavage rate” value was determined as 0.000145 ± 0.03.

UCCUGGAUGUCGAAGCAUACUAUUUACUUA: the “pre-steady-state target cleavage rate” value is 0.000184 ± 0.024.

Turning to UCCUCCUACAGCUUGGAUAGUAUUUAGAUA, the “pre-steady-state target cleavage rate” value was 0.00141 ± 0.0039.

Regarding UCCUCCUACAGCUUGCAUAGUAUUUUGUAA, the “pre-steady-state target cleavage rate” value is 0.0015 ± 0.004.

Turning to UCCUGGAUGUCGAACGUAUGUAUUAUGUUA, the “pre-steady-state target cleavage rate” value was determined as 0.000134 ± 0.041.

Take UCCUGGAUGUCGAACGUAAGUAAAAAGUUA: the “pre-steady-state target cleavage rate” value was 0.000301 ± 0.012.

Turning to UCCUGGAUGUCGAACCAUAGUAUAAUGUUA, the “pre-steady-state target cleavage rate” value came to 0.000288 ± 0.015.

Regarding UCCUGGAACAGCUUGCAUAGUAUUUUGUUA, the “pre-steady-state target cleavage rate” value was determined as 0.00231 ± 0.0036.

UCCUGGAUGUCGAUCCAUAGUUUUUAGUUA: the “pre-steady-state target cleavage rate” value was found to be 0.000197 ± 0.027.

With UCCUCCUACAGCUUGCAUAGUUUUUAGAAA, the “pre-steady-state target cleavage rate” value stood at 0.00123 ± 0.0044.

For the sequence UCCUGGAUGUCGAAGCAUACUAUAUAGUUA, the “pre-steady-state target cleavage rate” value amounted to 0.000262 ± 0.018.

Consider UCCUGGAUCAGCUUGCAUAGUAAUUAGAAA, for which the “pre-steady-state target cleavage rate” value worked out at 0.00245 ± 0.0036.

Consider UCCUGGAUGAGCUUGCAUACUAUUUAGAUA, for which the “pre-steady-state target cleavage rate” value came to 0.000667 ± 0.0096.

For UCCUGGAUGUCGAACGUAAGUAAUUAGAUA, the “pre-steady-state target cleavage rate” value turned out to be 0.000206 ± 0.017.

Consider UCCUCCUACAGCUUGCAUAGUAAUUAGUAA, for which the “pre-steady-state target cleavage rate” value came to 0.00203 ± 0.0031.

As for UCCUGGAUGUCGUUGGAUAGUAUAUAGUUA, the “pre-steady-state target cleavage rate” value came to 0.000107 ± 0.062.

For UCCUGGAUGUCCAUCCAUAGUAUUUAGUUA, the “pre-steady-state target cleavage rate” value came out at 0.000798 ± 0.0094.

Regarding UCCUCCAACAGCUUGCAUAGUAUUUACUUA, the “pre-steady-state target cleavage rate” value worked out at 0.00287 ± 0.0029.

Take UCCUGGAUGUCGAAGCAUACUAUUUAGUAA: the “pre-steady-state target cleavage rate” value worked out at 0.000247 ± 0.017.

As for UCCUGGUACAGCUUGGAUAGUAUUUACUUA, the “pre-steady-state target cleavage rate” value turned out to be 0.00107 ± 0.0078.

For the sequence UCCUGGAUGUCGAACCAUAGUAUUUUCAUA, the “pre-steady-state target cleavage rate” value came out at 0.000245 ± 0.015.

Turning to UCCUGGAUGUCGAACGUAUGUUAAUAGUUA, the “pre-steady-state target cleavage rate” value came out at 0.000108 ± 0.04.

For the sequence UCCUGGAUGUGCUUGCAUAGCAUUUAGUUA, the “pre-steady-state target cleavage rate” value turned out to be 0.00152 ± 0.0044.

As for UCCUCCUACUCCUUGCAUAGUAUUUAGAAA, the “pre-steady-state target cleavage rate” value is 0.00117 ± 0.004.

Take UCCUCCUACAGGUUGCAUAGUAUUUACUUA: the “pre-steady-state target cleavage rate” value worked out at 0.00196 ± 0.0028.

UCCUGGAUGUCGAUGCAUAGUUUUAAGUUA: the “pre-steady-state target cleavage rate” value amounted to 0.00158 ± 0.0044.

Turning to UCCUGGAUGUCGAACGUUAGUUAUUAGUUA, the “pre-steady-state target cleavage rate” value worked out at 0.000104 ± 0.036.

With UCCUCCUACAGCUUGCAUAGUUUUUAGAUA, the “pre-steady-state target cleavage rate” value was 0.00103 ± 0.0055.

With UCCUGGAUGUCGAACGAUAGUAUUUAGUGUA, the “pre-steady-state target cleavage rate” value came out at 0.000122 ± 0.03.
